Assay results published in article PMC4053355.
Results are given in words; binding and its absence hold for the method and conditions named. In cells and extracts the contact can be indirect. Some entries that bind do so weakly or less than the wild type.

Amino acid sequences for entries named in this document (tags omitted). Residues count along the entry.
UniProt Q15643: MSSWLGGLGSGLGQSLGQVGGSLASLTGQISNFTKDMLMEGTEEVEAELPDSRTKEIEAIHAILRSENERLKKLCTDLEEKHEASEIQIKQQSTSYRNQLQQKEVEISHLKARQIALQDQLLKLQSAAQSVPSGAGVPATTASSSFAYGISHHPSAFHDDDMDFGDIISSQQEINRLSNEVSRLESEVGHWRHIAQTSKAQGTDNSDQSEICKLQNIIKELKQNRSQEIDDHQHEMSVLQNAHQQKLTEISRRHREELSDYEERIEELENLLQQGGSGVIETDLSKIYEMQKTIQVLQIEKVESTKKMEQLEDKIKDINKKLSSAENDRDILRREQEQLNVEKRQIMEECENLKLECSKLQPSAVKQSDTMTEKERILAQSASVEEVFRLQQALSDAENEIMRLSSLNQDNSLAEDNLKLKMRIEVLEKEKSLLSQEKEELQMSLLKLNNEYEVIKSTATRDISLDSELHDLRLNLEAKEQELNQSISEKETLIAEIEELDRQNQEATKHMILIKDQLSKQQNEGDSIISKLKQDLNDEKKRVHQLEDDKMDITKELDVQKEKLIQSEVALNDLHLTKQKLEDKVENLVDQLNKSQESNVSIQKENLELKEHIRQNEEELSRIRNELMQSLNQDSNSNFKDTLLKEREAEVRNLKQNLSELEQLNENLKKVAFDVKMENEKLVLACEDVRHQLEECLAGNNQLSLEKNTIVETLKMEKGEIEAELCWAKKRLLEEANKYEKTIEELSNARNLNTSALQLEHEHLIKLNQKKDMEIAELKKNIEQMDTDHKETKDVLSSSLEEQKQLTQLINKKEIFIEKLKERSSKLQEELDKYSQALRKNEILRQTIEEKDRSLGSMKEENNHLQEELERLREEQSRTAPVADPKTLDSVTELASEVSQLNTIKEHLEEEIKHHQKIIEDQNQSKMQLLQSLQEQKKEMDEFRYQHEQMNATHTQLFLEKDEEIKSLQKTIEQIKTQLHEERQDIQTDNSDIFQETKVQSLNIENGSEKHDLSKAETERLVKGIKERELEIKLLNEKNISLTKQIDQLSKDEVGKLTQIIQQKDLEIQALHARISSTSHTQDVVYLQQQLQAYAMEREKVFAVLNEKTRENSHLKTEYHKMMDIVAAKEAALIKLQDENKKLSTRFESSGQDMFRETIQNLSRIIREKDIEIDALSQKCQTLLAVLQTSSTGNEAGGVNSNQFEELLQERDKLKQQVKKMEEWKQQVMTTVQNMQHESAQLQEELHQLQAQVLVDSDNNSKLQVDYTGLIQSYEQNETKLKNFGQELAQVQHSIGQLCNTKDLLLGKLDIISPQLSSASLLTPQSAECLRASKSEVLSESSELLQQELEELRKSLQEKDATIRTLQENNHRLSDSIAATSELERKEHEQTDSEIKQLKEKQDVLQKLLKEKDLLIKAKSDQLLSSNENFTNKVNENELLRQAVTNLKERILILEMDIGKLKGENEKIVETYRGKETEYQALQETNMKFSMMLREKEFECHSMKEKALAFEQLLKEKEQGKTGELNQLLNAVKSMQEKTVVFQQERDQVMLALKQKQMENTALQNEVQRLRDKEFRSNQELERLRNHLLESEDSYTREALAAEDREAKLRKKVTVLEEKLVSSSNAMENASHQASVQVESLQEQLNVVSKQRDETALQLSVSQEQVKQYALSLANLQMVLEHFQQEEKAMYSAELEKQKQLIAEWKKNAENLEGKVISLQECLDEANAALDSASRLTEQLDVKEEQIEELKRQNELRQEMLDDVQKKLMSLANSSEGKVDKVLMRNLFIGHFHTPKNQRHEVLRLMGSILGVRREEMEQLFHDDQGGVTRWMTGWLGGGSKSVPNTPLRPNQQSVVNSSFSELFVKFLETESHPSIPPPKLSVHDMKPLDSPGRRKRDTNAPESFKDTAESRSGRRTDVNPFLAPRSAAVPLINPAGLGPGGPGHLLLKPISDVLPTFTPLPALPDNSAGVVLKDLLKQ
UniProt P53762, residues 344-479: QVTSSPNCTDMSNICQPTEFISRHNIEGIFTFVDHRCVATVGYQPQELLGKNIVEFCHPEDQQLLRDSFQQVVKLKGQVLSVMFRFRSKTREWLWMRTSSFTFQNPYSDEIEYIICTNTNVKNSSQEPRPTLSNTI
UniProt P27540: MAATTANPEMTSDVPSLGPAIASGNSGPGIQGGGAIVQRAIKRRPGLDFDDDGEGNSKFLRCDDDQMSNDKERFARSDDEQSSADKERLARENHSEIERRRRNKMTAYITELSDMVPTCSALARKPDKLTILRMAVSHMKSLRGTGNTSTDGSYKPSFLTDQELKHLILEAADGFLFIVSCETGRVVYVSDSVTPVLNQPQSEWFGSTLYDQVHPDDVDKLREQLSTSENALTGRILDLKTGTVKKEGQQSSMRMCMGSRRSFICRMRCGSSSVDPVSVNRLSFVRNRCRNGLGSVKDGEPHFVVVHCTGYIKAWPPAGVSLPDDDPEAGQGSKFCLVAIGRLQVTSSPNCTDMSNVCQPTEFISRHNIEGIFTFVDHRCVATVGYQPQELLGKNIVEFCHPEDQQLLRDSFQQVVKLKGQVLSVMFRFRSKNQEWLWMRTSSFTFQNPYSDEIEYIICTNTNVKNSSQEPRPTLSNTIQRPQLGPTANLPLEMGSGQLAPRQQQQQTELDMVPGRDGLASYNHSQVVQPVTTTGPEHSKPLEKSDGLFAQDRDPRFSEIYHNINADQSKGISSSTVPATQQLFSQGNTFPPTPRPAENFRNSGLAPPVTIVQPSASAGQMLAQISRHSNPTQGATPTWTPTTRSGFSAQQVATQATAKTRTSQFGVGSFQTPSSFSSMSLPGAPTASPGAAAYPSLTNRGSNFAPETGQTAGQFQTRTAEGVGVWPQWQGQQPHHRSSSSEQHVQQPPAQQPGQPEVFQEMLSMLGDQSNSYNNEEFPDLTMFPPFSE

Tests used:
[1] = biological target: thyroid hormone receptor/retinoblastoma-interacting protein-230 (TRIP230) (human (endogenous in MCF7)) (UniProt Q15643); assay: co-IP; about 1 mg nuclear extract of MCF7 cells kept in 1% O2 for 6 h, 5 µg anti-TRIP230 mouse IgG or control mouse IgG, 4°C 90 min, Protein-G sepharose; immuno-blot for TRIP230, ARNT and Rb
[2] = biological target: GST-ARNT-PAS-B (amino acids 344-479 of mouse ARNT, expanded PAS-B domain, fused to GST) (mouse) (UniProt P53762); assay: pull-down; GST or GST-ARNT-PAS-B on glutathione-agarose beads incubated with MCF7 nuclear extract at 4°C for 90 min; extracts of cells at normoxia or in 1% O2 for 6 h; immuno-blot for TRIP230, Rb or phospho-Rb (Ser780); only the target purified

binding [1] | binding [2] | Substance
binds | – | aryl hydrocarbon receptor nuclear translocator (ARNT) (from UniProt P27540 1-789)
– | binds | thyroid hormone receptor/retinoblastoma-interacting protein-230 (TRIP230) (from UniProt Q15643 1-1979)
